Record: PubChem BioAssay AID1259254 (NCATS, 2017)
Here is one part, drawn at random, of about 59,000 reagents tested. In the full data, about 1,550 (2.6%) were called active. 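G2 share is only a proxy for re-replication; each gene was hit by three separate siRNAs, and active genes were retested.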 Reagents against one gene are numbered here. Further read-outs or replicates are left out here. Not stated in the record: the amount of reagent.

- Assay: 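Genome-wide screen for genes that prevent DNA re-replication in cancer cells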 (primary screen)
- Cells: human HCT116 colorectal cancer cells
- Reagent: single siRNA against human genes
- Duration: 3 days
- Read-out: 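Nuclei stained with Hoechst and imaged; cell-cycle phase assigned by DNA content; G2 share scaled per plate, non-targeting siRNA 0%, GMNN siRNA 100%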
- Reading the numbers: G2 robust z-score: higher = more G2 cells, more excess DNA replication
- Hit rule: 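An siRNA counts as active if its G2 robust z-score lies at least 5 MADs above the screen median; here such calls match roughly 38% of GMNN control or more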

With knock-down of SHC4 (SHC adaptor protein 4) #1, the record shows G2 robust z-score -0.212; inactive. After knock-down of SHC4 (SHC adaptor protein 4) #2 the results were G2 robust z-score 0.909; inactive. SHC4 (SHC adaptor protein 4) #3 scored G2 robust z-score -1.39; inactive. Silencing of MARCKS (myristoylated alanine rich protein kinase C substrate) #1 gave: G2 robust z-score -0.477; inactive. After knock-down of MARCKS (myristoylated alanine rich protein kinase C substrate) #2 the results were G2 robust z-score -0.206; inactive. With knock-down of MARCKS (myristoylated alanine rich protein kinase C substrate) #3, the record shows G2 robust z-score 1.08; inactive.

KCNT1 (potassium sodium-activated channel subfamily T member 1) #1 gave G2 robust z-score -0.807; inactive. KCNT1 (potassium sodium-activated channel subfamily T member 1) #2 gave G2 robust z-score 0.632; inactive. KCNT1 (potassium sodium-activated channel subfamily T member 1) #3 showed G2 robust z-score 3.18; inactive.

Records listed so far whose target name begins with M or m (3):
MARCKS (myristoylated alanine rich protein kinase C substrate) #1 → G2 robust z-score = -0.477; outcome = inactive
MARCKS (myristoylated alanine rich protein kinase C substrate) #2 → G2 robust z-score = -0.206; outcome = inactive
MARCKS (myristoylated alanine rich protein kinase C substrate) #3 → G2 robust z-score = 1.08; outcome = inactive

Further reagents follow:
After knock-down of OR4N3P (olfactory receptor family 4 subfamily N member 3 pseudogene) #1 the results were G2 robust z-score 0.179; inactive. OR4N3P (olfactory receptor family 4 subfamily N member 3 pseudogene) #2 showed G2 robust z-score 0.158; inactive. Silencing of OR4N3P (olfactory receptor family 4 subfamily N member 3 pseudogene) #3 came out at: G2 robust z-score 0.0253; inactive. DSPP (dentin sialophosphoprotein) #1 scored G2 robust z-score -0.262; inactive. DSPP (dentin sialophosphoprotein) #2 gave G2 robust z-score -0.084; inactive. For DSPP (dentin sialophosphoprotein) #3, the values are G2 robust z-score 1.38; inactive.

Against ORMDL3 (ORMDL sphingolipid biosynthesis regulator 3) #1, the values are G2 robust z-score -0.889; inactive. For ORMDL3 (ORMDL sphingolipid biosynthesis regulator 3) #2, the values are G2 robust z-score 2.62; inactive. Against ORMDL3 (ORMDL sphingolipid biosynthesis regulator 3) #3, the values are G2 robust z-score -0.48; inactive. Depletion of APOB (apolipoprotein B) #1 resulted in: G2 robust z-score -0.414; inactive. Knock-down of APOB (apolipoprotein B) #2 resulted in: G2 robust z-score -1.02; inactive. For APOB (apolipoprotein B) #3, the values are G2 robust z-score -0.36; inactive.

Silencing of LRIT1 (leucine rich repeat, Ig-like and transmembrane domains 1) #1 came out at: G2 robust z-score 0.264; inactive. With knock-down of LRIT1 (leucine rich repeat, Ig-like and transmembrane domains 1) #2, the screen gave G2 robust z-score 2; inactive. Silencing of LRIT1 (leucine rich repeat, Ig-like and transmembrane domains 1) #3 resulted in: G2 robust z-score 0.1; inactive.
